Assay results: publication PMC9491610
Substitutions are numbered along the chain they refer to. These are yes or no findings as the source states them, for the method shown. In cells and extracts the contact can be indirect. Some binding calls cover weakened binding; strength is not graded here.

Legend:
Assay in all cases: co-IP; Stu2-HA precipitated with anti-HA magnetic beads from 90 mg cryo-milled yeast extract in 1x PBS pH 7.4 with 0.1% Tween; precipitate blotted with anti γ-tubulin (anti-Tub4)
[1] = biological target: T1, Stu2-K252R-3xHA (S. cerevisiae) (UniProt P46675)
T1 sequence: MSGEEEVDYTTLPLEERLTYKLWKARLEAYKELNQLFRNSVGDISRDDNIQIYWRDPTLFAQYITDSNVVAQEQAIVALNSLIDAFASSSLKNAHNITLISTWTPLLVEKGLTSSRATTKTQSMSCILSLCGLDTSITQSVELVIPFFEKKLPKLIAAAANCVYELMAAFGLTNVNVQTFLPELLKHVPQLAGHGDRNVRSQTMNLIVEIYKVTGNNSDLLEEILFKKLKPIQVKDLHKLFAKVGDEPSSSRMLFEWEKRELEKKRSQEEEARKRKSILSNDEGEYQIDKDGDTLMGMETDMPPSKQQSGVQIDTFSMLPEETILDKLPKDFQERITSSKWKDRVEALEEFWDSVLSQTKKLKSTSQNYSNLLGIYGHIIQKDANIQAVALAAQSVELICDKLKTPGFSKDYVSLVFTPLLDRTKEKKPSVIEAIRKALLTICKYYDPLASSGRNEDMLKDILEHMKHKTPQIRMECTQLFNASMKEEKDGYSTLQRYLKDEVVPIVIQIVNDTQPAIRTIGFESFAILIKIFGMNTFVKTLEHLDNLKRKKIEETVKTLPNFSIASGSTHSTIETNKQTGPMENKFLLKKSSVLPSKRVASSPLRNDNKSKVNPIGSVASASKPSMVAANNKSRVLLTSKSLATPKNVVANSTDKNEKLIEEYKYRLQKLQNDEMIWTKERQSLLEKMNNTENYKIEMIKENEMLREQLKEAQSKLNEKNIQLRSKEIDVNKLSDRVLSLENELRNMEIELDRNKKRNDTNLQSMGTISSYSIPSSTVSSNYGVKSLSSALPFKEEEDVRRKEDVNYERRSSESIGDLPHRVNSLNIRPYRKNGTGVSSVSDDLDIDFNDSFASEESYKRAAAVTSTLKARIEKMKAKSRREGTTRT

[2] = biological target: T2, Stu2-K252,469,870Q-3xHA (S. cerevisiae) (UniProt P46675)
T2 sequence: T1 sequence with R252Q, K469Q, K870Q

[3] = biological target: T3, Stu2-K469Q-3xHA (S. cerevisiae) (UniProt P46675)
T3 sequence: T1 sequence with R252K, K469Q

Measured: binding

B1: γ-tubulin (Tub4) (protein, UniProt P53378 1-473)
chain: MGGEIITLQAGQCGNHVGKFLWSQLAKEHAIGTDGLSQLPDSSTERDDDTKPFFRENSRNKFTPRAIMMDSEPSVIADVENTFRGFFDPRNTWVASDGASAGNSWANGYDIGTRNQDDILNKIDKEIDSTDNFEGFQLLHSVAGGTGSGLGSNLLEALCDRYPKKILTTYSVFPARSSEVVVQSYNTILALRRLIEDSDATVVFDNASLLNISGKVFRNPNIDLQHTNQLISTIISSVTNSIRFPSYMYSSMSSIYSTLIPSPELHFLSPSFTPFTSDYIHDDIAHKGHSSYDVMLDLLDPSNSLVSTAMNNPTYFNVYNTIIGNVEPRQISRAMTKLQQRIKFPSWSSSAMHVNIGRRSPYLPLQPNENEVSGMMLSNMSTVVNVFENACNTFDKVFAKGAFLNNYNVGDLFQSMQNVQDEFAESREVVQSLMEDYVAAEQDSYLDDVLVDDENMVGELEEDLDADGDHKLV
binds: [1] | [2] | [3]
